# Test results taken from the supplement of paper PMC8728848.
# The list shows a part of the results.
# B1: SAG1 (Toxoplasma gondii), P13664 (protein)
# chain: MSVSLHHFIISSGFLTSMFPKAVRRAVTAGVFAAPTLMSFLRCGVMASDPPLVANQVVTCPDKKSTAAVILTPTENHFTLKCPKTALTEPPTLAYSPNRQICPAGTTSSCTSKAVTLSSLIPEAEDSWWTGDSASLDTAGIKLTVPIEKFPVTTQTFVVGCIKGDDAQSCMVTVTVQARASSVVNNVARCSYGADSTLGPVKLSAEGPTTMTLVCGKDGVKVPQDNNQYCSGTTLTGCNEKSFKDILPKLTENPWQGNASSDKGATLTIKKEAFPAESKSVIIGCTGGSPEKHHCTVKLEFAGAAGSAKSAAGTASHVSIFAMVIGLIGSIAACVA
# How the values were obtained:
# Assay in all cases: glycan array binding signal (z-score within array); higher = stronger binding
# Conditions in all cases: glycan notation: IUPAC condensed, linker removed
# [1] = target: Gal(b1-4)GlcNAc(a1-6)Gal(b1-4)GlcNAc
# How it was run: (§1)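 Negative Z-scores can be read as non-binding. The Z-score is calculated within each array and then averaged across arrays of one protein sequence at different concentrations or buffers and across linkers. Arrays, 3228 in all, were curated from the Consortium for Functional Glycomics database and kept only where the protein sequence was available.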
# [2] = target: Gal(b1-4)GlcNAc(b1-2)Man(a1-3)Man(b1-4)GlcNAc(b1-4)GlcNAc
# How it was run: as §1
# [3] = target: Gal(b1-4)GlcNAc(b1-2)Man(a1-3)[Gal(b1-4)GlcNAc(b1-2)Man(a1-6)]Man(b1-4)GlcNAc(b1-4)GlcNAc
# How it was run: as §1
# [4] = target: Gal(b1-4)GlcNAc(b1-2)Man(a1-3)[Gal(b1-4)GlcNAc(b1-2)Man(a1-6)]Man(b1-4)GlcNAc(b1-4)[Fuc(a1-6)]GlcNAc
# How it was run: as §1
# [5] = target: Gal(b1-4)GlcNAc(b1-2)Man(a1-3)[GlcNAc(b1-2)Man(a1-6)]Man(b1-4)GlcNAc(b1-4)GlcNAc
# How it was run: as §1
# [6] = target: Gal(b1-4)GlcNAc(b1-2)Man(a1-3)[Man(a1-6)]Man(b1-4)GlcNAc(b1-4)GlcNAc
# How it was run: as §1
# [7] = target: Gal(b1-4)GlcNAc(b1-2)Man(a1-6)Man(b1-4)GlcNAc(b1-4)GlcNAc
# How it was run: as §1
# [8] = target: Gal(b1-4)GlcNAc(b1-2)Man(a1-6)[GlcNAc(b1-2)Man(a1-3)]Man(b1-4)GlcNAc(b1-4)GlcNAc
# How it was run: as §1
# [9] = target: Gal(b1-4)GlcNAc(b1-2)Man(a1-6)[Man(a1-3)]Man(b1-4)GlcNAc(b1-4)GlcNAc
# How it was run: as §1
# [10] = target: Gal(b1-4)GlcNAc(b1-2)[Gal(b1-4)GlcNAc(b1-4)]Man(a1-3)[Gal(b1-4)GlcNAc(b1-2)Man(a1-6)]Man(b1-4)GlcNAc(b1-4)GlcNAc
# How it was run: as §1
# [11] = target: Gal(b1-4)GlcNAc(b1-2)[Gal(b1-4)GlcNAc(b1-4)]Man(a1-3)[Gal(b1-4)GlcNAc(b1-2)[Gal(b1-4)GlcNAc(b1-6)]Man(a1-6)]Man(b1-4)GlcNAc(b1-4)GlcNAc
# How it was run: as §1
# [12] = target: Gal(b1-4)GlcNAc(b1-3)Gal(b1-3)GlcNAc
# How it was run: as §1
# [13] = target: Gal(b1-4)GlcNAc(b1-3)Gal(b1-4)Glc
# How it was run: as §1
# [14] = target: Gal(b1-4)GlcNAc(b1-3)Gal(b1-4)GlcNAc
# How it was run: as §1
# [15] = target: Gal(b1-4)GlcNAc(b1-3)Gal(b1-4)GlcNAc(b1-3)Gal(b1-4)GlcNAc
# How it was run: as §1
# [16] = target: Gal(b1-4)GlcNAc(b1-3)Gal(b1-4)[Fuc(a1-3)]GlcNAc(b1-3)Gal(b1-4)[Fuc(a1-3)]GlcNAc
# How it was run: as §1
# [17] = target: Gal(b1-4)GlcNAc(b1-3)GalNAc
# How it was run: as §1
# [18] = target: Gal(b1-4)GlcNAc(b1-3)[Gal(b1-4)GlcNAc(b1-6)]Gal(b1-4)GlcNAc
# How it was run: as §1
# [19] = target: Gal(b1-4)GlcNAc(b1-3)[Gal(b1-4)GlcNAc(b1-6)]GalNAc
# How it was run: as §1
# [20] = target: Gal(b1-4)GlcNAc(b1-3)[GlcNAc(b1-6)]Gal(b1-4)GlcNAc
# How it was run: as §1
# [21] = target: Gal(b1-4)GlcNAc(b1-6)Gal(b1-4)GlcNAc
# How it was run: as §1
# [22] = target: Gal(b1-4)GlcNAc(b1-6)GalNAc
# How it was run: as §1
# [23] = target: Gal(b1-4)GlcNAc(b1-6)[Gal(b1-3)]GalNAc
# How it was run: as §1
# Gal3S(b1-3)GalNAc = target: Gal3S(b1-3)GalNAc
# How it was run: as §1
# Gal3S(b1-3)GlcNAc = target: Gal3S(b1-3)GlcNAc
# How it was run: as §1
# [24] = target: Gal3S(b1-3)[Fuc(a1-4)]GlcNAc
# How it was run: as §1
# Gal3S(b1-4)Glc = target: Gal3S(b1-4)Glc
# How it was run: as §1
# Gal3S(b1-4)Glc6S = target: Gal3S(b1-4)Glc6S
# How it was run: as §1
# Gal3S(b1-4)GlcNAc = target: Gal3S(b1-4)GlcNAc
# How it was run: as §1
# Gal3S(b1-4)GlcNAc6S = target: Gal3S(b1-4)GlcNAc6S
# How it was run: as §1
# [25] = target: Gal3S(b1-4)[Fuc(a1-3)]Glc
# How it was run: as §1
# [26] = target: Gal3S(b1-4)[Fuc(a1-3)]Glc6S
# How it was run: as §1
# Gal3S4S(b1-4)GlcNAc = target: Gal3S4S(b1-4)GlcNAc
# How it was run: as §1
# Gal3S6S(b1-4)GlcNAc = target: Gal3S6S(b1-4)GlcNAc
# How it was run: as §1
# Gal3S6S(b1-4)GlcNAc6S = target: Gal3S6S(b1-4)GlcNAc6S
# How it was run: as §1
# Gal4S(b1-4)GlcNAc = target: Gal4S(b1-4)GlcNAc
# How it was run: as §1
# Gal4S6S(b1-4)GlcNAc = target: Gal4S6S(b1-4)GlcNAc
# How it was run: as §1
binder,measurement,setting,value
B1,glycan array binding signal (z-score),[1],-0.386
same,glycan array binding signal (z-score),[2],-0.57
same,glycan array binding signal (z-score),[3],-0.331
same,glycan array binding signal (z-score),[4],0.764
same,glycan array binding signal (z-score),[5],0.426
same,glycan array binding signal (z-score),[6],0.531
same,glycan array binding signal (z-score),[7],-0.778
same,glycan array binding signal (z-score),[8],0.184
same,glycan array binding signal (z-score),[9],0.553
same,glycan array binding signal (z-score),[10],0.037
same,glycan array binding signal (z-score),[11],0.028
same,glycan array binding signal (z-score),[12],-0.473
same,glycan array binding signal (z-score),[13],-0.182
same,glycan array binding signal (z-score),[14],-0.435
same,glycan array binding signal (z-score),[15],1.25
same,glycan array binding signal (z-score),[16],0.117
same,glycan array binding signal (z-score),[17],0.77
same,glycan array binding signal (z-score),[18],-0.797
same,glycan array binding signal (z-score),[19],-0.662
same,glycan array binding signal (z-score),[20],-0.296
same,glycan array binding signal (z-score),[21],-0.985
same,glycan array binding signal (z-score),[22],0.63
same,glycan array binding signal (z-score),[23],-0.052
same,glycan array binding signal (z-score),Gal3S(b1-3)GalNAc,-0.961
same,glycan array binding signal (z-score),Gal3S(b1-3)GlcNAc,-0.518
same,glycan array binding signal (z-score),[24],7.52
same,glycan array binding signal (z-score),Gal3S(b1-4)Glc,0.38
same,glycan array binding signal (z-score),Gal3S(b1-4)Glc6S,0.059
same,glycan array binding signal (z-score),Gal3S(b1-4)GlcNAc,-0.166
same,glycan array binding signal (z-score),Gal3S(b1-4)GlcNAc6S,0.782
same,glycan array binding signal (z-score),[25],0.835
same,glycan array binding signal (z-score),[26],0.37
same,glycan array binding signal (z-score),Gal3S4S(b1-4)GlcNAc,0.268
same,glycan array binding signal (z-score),Gal3S6S(b1-4)GlcNAc,0.835
same,glycan array binding signal (z-score),Gal3S6S(b1-4)GlcNAc6S,1.21
same,glycan array binding signal (z-score),Gal4S(b1-4)GlcNAc,0.045
same,glycan array binding signal (z-score),Gal4S6S(b1-4)GlcNAc,-0.448

# Rewritten as tab-separated lines: part of the list above.
binder	measurement	setting	value
B1	glycan array binding signal (z-score)	[13]	-0.182
same	glycan array binding signal (z-score)	[14]	-0.435
